These are yes or no findings as the source states them, for the method shown. Some entries that bind do so weakly or less than the wild type.
Key:
[1] = molecular target: VLDLr (8444-VL, R&D) (UniProt P98155); assay: ELISA on coated receptor
[2] = molecular target: ApoEr2 (TP320903, OnGene) (UniProt Q14114); assay: ELISA on coated receptor

The chains behind the UniProt entries cited, without tags or fusion partners. Residues count along the entry.
UniProt Q14114, residues 33-963: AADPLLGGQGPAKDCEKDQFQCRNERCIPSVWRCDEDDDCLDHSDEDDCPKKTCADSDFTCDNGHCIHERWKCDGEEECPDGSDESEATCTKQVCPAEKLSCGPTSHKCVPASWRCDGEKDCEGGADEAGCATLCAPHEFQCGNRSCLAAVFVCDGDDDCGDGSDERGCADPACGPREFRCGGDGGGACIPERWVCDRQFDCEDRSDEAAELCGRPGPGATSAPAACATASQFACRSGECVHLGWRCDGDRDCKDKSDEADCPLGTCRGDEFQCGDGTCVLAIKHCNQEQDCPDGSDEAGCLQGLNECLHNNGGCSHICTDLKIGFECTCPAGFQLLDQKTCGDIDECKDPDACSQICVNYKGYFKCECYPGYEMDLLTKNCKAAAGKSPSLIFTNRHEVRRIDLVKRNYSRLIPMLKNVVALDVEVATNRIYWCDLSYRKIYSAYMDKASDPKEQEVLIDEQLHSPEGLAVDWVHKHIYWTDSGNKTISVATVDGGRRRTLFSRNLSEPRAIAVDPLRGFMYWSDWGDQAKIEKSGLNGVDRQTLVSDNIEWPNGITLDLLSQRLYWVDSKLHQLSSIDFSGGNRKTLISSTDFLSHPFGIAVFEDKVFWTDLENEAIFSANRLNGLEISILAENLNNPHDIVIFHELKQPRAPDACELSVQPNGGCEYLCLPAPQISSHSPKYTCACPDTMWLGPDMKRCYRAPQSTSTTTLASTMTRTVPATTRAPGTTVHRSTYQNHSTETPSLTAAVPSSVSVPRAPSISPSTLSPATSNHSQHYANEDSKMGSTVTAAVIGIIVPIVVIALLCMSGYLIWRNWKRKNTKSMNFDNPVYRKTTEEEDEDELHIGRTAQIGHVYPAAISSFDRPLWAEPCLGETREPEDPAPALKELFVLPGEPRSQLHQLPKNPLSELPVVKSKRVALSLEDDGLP
UniProt Q60841, residues 27-3461: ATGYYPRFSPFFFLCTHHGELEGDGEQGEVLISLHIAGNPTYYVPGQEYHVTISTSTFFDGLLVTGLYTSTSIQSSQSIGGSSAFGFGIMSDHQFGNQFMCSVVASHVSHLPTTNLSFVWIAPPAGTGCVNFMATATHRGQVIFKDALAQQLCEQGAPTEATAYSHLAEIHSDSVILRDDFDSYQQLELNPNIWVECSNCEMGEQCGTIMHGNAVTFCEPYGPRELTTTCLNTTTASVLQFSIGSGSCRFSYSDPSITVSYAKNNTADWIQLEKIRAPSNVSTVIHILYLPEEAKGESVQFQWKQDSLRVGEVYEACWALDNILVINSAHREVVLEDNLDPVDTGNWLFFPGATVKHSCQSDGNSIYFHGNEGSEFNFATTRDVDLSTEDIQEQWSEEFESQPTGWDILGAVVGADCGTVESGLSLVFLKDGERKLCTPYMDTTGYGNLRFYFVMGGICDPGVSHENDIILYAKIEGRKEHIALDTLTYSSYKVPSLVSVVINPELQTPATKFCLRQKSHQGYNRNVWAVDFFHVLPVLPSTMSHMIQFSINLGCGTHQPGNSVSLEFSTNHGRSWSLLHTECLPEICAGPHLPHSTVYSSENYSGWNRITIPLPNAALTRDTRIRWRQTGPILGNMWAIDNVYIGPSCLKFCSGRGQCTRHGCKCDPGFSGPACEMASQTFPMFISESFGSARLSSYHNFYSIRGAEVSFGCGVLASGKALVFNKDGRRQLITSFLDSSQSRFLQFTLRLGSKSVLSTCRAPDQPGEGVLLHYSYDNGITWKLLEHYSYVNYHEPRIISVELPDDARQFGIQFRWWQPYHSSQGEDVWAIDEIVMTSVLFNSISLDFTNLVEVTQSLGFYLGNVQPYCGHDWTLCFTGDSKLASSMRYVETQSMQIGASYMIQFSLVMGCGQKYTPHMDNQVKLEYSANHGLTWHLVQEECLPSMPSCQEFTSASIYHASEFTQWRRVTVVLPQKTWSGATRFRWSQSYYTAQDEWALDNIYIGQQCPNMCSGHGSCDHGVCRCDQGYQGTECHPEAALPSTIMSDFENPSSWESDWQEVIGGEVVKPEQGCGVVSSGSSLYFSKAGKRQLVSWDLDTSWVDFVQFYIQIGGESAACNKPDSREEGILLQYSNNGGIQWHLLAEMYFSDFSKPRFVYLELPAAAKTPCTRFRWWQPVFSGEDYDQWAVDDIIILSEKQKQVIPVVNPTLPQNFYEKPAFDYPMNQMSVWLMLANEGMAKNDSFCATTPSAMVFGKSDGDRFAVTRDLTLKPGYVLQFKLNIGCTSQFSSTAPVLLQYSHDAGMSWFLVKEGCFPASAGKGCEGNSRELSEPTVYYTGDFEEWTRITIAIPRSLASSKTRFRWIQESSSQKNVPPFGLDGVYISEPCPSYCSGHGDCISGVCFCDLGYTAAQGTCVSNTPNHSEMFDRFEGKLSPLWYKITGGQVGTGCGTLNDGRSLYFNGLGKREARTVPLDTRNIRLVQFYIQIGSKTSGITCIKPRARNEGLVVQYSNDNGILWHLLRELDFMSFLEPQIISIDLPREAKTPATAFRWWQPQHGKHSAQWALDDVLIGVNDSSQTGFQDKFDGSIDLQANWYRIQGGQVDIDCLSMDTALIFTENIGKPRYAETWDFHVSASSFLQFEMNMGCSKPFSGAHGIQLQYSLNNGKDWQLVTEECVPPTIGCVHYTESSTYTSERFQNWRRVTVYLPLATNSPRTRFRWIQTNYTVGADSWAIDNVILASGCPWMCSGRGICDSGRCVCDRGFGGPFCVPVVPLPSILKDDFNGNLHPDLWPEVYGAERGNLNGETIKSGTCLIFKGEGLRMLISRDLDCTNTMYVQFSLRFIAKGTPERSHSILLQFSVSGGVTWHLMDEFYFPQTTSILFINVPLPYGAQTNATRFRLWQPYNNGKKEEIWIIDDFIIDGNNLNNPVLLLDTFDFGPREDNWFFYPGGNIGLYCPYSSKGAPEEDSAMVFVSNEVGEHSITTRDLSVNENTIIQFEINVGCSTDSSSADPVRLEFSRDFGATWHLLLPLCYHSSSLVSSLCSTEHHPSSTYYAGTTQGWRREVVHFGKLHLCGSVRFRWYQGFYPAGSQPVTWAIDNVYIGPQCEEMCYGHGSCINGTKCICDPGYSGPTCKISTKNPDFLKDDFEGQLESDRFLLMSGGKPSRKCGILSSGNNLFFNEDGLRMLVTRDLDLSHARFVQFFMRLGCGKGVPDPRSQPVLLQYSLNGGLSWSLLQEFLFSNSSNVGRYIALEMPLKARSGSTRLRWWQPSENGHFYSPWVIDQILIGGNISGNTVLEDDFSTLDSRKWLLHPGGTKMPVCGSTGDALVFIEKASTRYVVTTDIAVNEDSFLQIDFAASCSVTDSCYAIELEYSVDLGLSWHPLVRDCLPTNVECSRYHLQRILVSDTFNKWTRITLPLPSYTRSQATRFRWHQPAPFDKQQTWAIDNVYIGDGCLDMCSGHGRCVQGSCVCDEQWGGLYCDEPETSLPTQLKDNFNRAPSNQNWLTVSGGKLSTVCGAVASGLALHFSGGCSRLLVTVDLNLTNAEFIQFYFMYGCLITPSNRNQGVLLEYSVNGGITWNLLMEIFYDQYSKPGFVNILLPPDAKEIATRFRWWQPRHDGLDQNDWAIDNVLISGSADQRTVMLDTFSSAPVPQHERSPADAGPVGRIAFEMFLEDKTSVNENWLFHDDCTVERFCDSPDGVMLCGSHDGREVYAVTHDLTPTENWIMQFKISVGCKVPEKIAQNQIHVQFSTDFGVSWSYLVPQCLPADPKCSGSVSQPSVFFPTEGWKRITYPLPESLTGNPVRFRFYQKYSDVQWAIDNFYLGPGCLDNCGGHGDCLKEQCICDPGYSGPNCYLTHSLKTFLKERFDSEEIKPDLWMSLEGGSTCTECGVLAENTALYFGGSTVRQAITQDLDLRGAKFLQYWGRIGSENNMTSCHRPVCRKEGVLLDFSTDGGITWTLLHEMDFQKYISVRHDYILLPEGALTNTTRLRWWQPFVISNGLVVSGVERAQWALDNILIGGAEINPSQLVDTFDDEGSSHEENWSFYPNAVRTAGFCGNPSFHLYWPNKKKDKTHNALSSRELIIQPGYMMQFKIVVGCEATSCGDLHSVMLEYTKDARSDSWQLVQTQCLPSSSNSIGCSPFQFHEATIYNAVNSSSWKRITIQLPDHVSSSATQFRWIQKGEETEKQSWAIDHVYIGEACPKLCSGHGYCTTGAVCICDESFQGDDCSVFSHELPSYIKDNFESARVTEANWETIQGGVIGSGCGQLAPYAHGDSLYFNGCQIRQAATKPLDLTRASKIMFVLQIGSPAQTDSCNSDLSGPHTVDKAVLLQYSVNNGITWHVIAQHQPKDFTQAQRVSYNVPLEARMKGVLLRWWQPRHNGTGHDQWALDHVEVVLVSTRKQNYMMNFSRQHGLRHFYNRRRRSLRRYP

binding [1]: binds
binding [2]: binds
Substance: full-length murine recombinant RELN WT (from UniProt Q60841 27-3461) (ligand)

— patent US20260139017A1, “COMPOSITIONS AND METHODS USING REELIN IN ALZHEIMER'S DISEASE” (The General Hospital Corporation, priority 2022, published 2026)
